Reference: PubChem BioAssay AID1159584 (Peter MacCallum Cancer Centre, 2016)
Screen: 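Genes that CDH1-null MCF10A cells selectively depend on to survive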 (primary screen). Cells: human MCF10A breast epithelial cells, parental and CDH1-null. Reagents: siRNA against human genes. Detection: 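ATP luminescence (CellTiter-Glo) viability per line relative to mean mock wells over all plates, and the ratio of CDH1-null to parental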. Direction: CDH1-null / parental viability ratio: higher = CDH1-null cells survive relatively better than parental.
This is an unselected part of about 18,000 deposited reagents. Further read-outs or replicates are left out here. Reagent sequences are not shown. The record does not give: the amount of reagent, the time to read-out.

gene | CDH1-null / parental viability ratio
FAIM2 (Fas apoptotic inhibitory molecule 2) | 1.14
DZIP1 (DAZ interacting zinc finger protein 1) | 1.12
NOS1AP (nitric oxide synthase 1 adaptor protein) | 0.8
FKBP9 (FKBP prolyl isomerase 9) | 0.83
SPDYE1 (speedy/RINGO cell cycle regulator family member E1) | 1.07
OR8H2 (olfactory receptor family 8 subfamily H member 2) | 1.26
HDAC5 (histone deacetylase 5) | 1.22
SLCO2B1 | 1.06
MNX1 (motor neuron and pancreas homeobox 1) | 1.54
MRPL10 (mitochondrial ribosomal protein L10) | 1.16
MED17 (mediator complex subunit 17) | 1.07
CTSD (cathepsin D) | 1.18
ITGBL1 (integrin subunit beta like 1) | 1.13
NOSTRIN (nitric oxide synthase trafficking) | 1.14
EGR1 (early growth response 1) | 1.09
BAG1 (BAG cochaperone 1) | 0.87
DSTN (destrin, actin depolymerizing factor) | 1.15
CCT3 (chaperonin containing TCP1 subunit 3) | 0.85
SEMA4G (semaphorin 4G) | 1.22
DCST2 (DC-STAMP domain containing 2) | 1.15
TRPM4 | 1.26
ARMH3 (armadillo like helical domain containing 3) | 0.97
CCL4 (C-C motif chemokine ligand 4) | 1.14
KRTAP19-2 (keratin associated protein 19-2) | 1.35
IL4 (interleukin 4) | 0.77
PABPN1 (poly(A) binding protein nuclear 1) | 0.79
SEC31A (SEC31 homolog A, COPII component) | 1.09
BANP (BTG3 associated nuclear protein) | 0.62
FBXO34 (F-box protein 34) | 0.99
GANC (glucosidase alpha, neutral C) | 0.89
COL5A1 (collagen type V alpha 1 chain) | 1.14
HCN4 | 1.12
KRT79 (keratin 79) | 1.34
C11orf16 (chromosome 11 open reading frame 16) | 1.84
ERH (ERH mRNA splicing and mitosis factor) | 0.93
STK33 (serine/threonine kinase 33) | 0.9
ZNF433 (zinc finger protein 433) | 0.68
RPL14 (ribosomal protein L14) | 1.19
SGMS1 (sphingomyelin synthase 1) | 1.16
AK3 (adenylate kinase 3) | 0.72
YLPM1 (YLP motif containing 1) | 1.21
ZNF746 (zinc finger protein 746) | 0.79
TTC5 (tetratricopeptide repeat domain 5) | 1
NPTX1 (neuronal pentraxin 1) | 0.98
SAMD13 (sterile alpha motif domain containing 13) | 0.94
PRRT1 (proline rich transmembrane protein 1) | 0.98
CHRAC1 (chromatin accessibility complex subunit 1) | 1.09
KCNK9 (potassium two pore domain channel subfamily K member 9) | 1.07
ZNF565 (zinc finger protein 565) | 1.02
F13A1 (coagulation factor XIII A chain) | 1.01
LOC284009 | 1.09
GPR26 (G protein-coupled receptor 26) | 0.83

Not a retest: entries from further up.
gene | CDH1-null / parental viability ratio
NOSTRIN (nitric oxide synthase trafficking) | 1.14
EGR1 (early growth response 1) | 1.09
BAG1 (BAG cochaperone 1) | 0.87
DSTN (destrin, actin depolymerizing factor) | 1.15
CCT3 (chaperonin containing TCP1 subunit 3) | 0.85
SEMA4G (semaphorin 4G) | 1.22
DCST2 (DC-STAMP domain containing 2) | 1.15
TRPM4 | 1.26
ARMH3 (armadillo like helical domain containing 3) | 0.97
CCL4 (C-C motif chemokine ligand 4) | 1.14
KRTAP19-2 (keratin associated protein 19-2) | 1.35
IL4 (interleukin 4) | 0.77
PABPN1 (poly(A) binding protein nuclear 1) | 0.79
SEC31A (SEC31 homolog A, COPII component) | 1.09

Continued:
gene | CDH1-null / parental viability ratio
SVBP (small vasohibin binding protein) | 1.05
TMUB1 (transmembrane and ubiquitin like domain containing 1) | 0.83
DLX4 (distal-less homeobox 4) | 1.26
LILRA2 (leukocyte immunoglobulin like receptor A2) | 1.36
SMAD5 (SMAD family member 5) | 0.94
RNASEH1 (ribonuclease H1) | 0.97
PCOTH (prostate and testis expressed opposite C1QTNF9B and MIPEP) | 1.02
CDON (cell adhesion associated, oncogene regulated) | 1.38
PHF3 (PHD finger protein 3) | 0.91
SIN3B (SIN3 transcription regulator family member B) | 1.87
HEMK1 | 0.96
SPANXN4 (SPANX family member N4) | 1.04
UBE2F (ubiquitin conjugating enzyme E2 F (putative)) | 1.07
DYDC2 (DPY30 domain containing 2) | 0.93
LRRC37A3 (leucine rich repeat containing 37 member A3) | 1.03
DUSP8 (dual specificity phosphatase 8) | 1.17
THEMIS2 (thymocyte selection associated family member 2) | 1.01
STX1B (syntaxin 1B) | 1.29
MATCAP2 (microtubule associated tyrosine carboxypeptidase 2) | 1.08
CD53 (CD53 molecule) | 0.79
ZNF587 (zinc finger protein 587) | 1.01
HS3ST5 (heparan sulfate-glucosamine 3-sulfotransferase 5) | 0.76
STK25 (serine/threonine kinase 25) | 0.76
EIF3L (eukaryotic translation initiation factor 3 subunit L) | 0.94
ADCY5 (adenylate cyclase 5) | 0.96
MANEAL (mannosidase endo-alpha like) | 0.38
THRB (thyroid hormone receptor beta) | 1
NUP43 (nucleoporin 43) | 1.68
PCDHGA8 (protocadherin gamma subfamily A, 8) | 1.05
CARMIL3 (capping protein regulator and myosin 1 linker 3) | 0.98
MAPK6 (mitogen-activated protein kinase 6) | 1.12
ELK4 (ETS transcription factor ELK4) | 0.98
CRYBA2 (crystallin beta A2) | 0.93
OR1M1 (olfactory receptor family 1 subfamily M member 1) | 0.72
PEX14 (peroxisomal biogenesis factor 14) | 1.24
